In US20080275086A1, “Dpp-Iv Inhibitors” (priority 2005, published 2008):
Where a name gives a salt, the structure may show the parent alone. Some results were stated once for a whole list of compounds, not compound by compound.

Sequences of proteins named here, by UniProt entry; tags and fusion partners are left off. Residues count along the entry.
UniProt P27487, 31-766: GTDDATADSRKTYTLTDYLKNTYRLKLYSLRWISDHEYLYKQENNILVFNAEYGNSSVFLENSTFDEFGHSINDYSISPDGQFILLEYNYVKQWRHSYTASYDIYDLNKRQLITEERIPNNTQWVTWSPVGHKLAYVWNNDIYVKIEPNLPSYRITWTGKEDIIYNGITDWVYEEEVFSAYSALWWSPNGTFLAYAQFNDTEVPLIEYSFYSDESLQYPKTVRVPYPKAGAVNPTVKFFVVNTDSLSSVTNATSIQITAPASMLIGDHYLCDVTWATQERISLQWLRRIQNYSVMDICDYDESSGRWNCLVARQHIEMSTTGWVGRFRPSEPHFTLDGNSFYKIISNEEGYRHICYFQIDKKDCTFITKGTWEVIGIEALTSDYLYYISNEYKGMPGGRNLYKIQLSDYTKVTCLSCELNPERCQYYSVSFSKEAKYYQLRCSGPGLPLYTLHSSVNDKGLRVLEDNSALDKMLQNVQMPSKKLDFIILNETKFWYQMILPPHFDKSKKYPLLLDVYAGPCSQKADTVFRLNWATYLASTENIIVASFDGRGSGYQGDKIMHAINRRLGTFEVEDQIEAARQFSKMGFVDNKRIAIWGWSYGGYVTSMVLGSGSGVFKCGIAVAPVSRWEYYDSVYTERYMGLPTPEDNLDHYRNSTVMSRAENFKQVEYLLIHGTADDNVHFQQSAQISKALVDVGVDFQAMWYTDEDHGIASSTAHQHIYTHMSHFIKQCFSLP

Target: T1, DPP-IV (Homo sapiens, UniProt P27487)
T1 construct: Soluble human DPP-IV lacking the transmembrane anchor (Gly31-Pro766); Pre-Pro-alpha-mating factor leader (secretion fusion) (N, cleaved yes); made in house
Test: Continuous fluorimetric assay of inhibition of DPP-IV peptidase activity (Gly-Pro-AMC cleavage)
Type: biochemical
Conditions: summary statement
Protocol: Inhibition of DPP-IV peptidase activity was monitored with a continuous fluorimetric assay. This assay is based on the cleavage of the substrate Gly-Pro-AMC (Bachem) by DPP-IV, releasing free AMC. The assay is carried out in 96-well microtiterplates. In a total volume of 100 μL, compounds are preincubated with 50 pM DPP-IV employing a buffer containing 10 mM Hepes, 150 mM NaCl, 0.005% Tween 20 (pH 7.4). The reaction is started by the addition of 16 μM substrate and the fluorescence of liberated AMC is detected for 10 minutes at 25° C. with a fluorescence reader (BMG-Fluostar; BMG-Technologies) using an excitation wavelength of 370 nm and an emission wavelength of 450 nm. The final concentration of DMSO is 1%. The inhibitory potential of the compounds were determined.
Soluble human DPP-IV lacking the transmembrane anchor (Gly31-Pro766) was expressed in a recombinant YEAST-strain as Pre-Pro-alpha-mating fusion. The secreted product (rhuDPP-IV-Gly31-Pro766) was purified from fermentation broth (>90% purity) and used for inhouse screening.

Structure (SMILES)	IC50 [nM]
N[C@@H](CC(=O)N1CCCC1Cc1ccccc1)Cc1ccccc1F (mixture of isomers) [Example 12]	≤ 2000
N[C@@H](CC(=O)N1CCC[C@H]1Cc1ccccc1)Cc1ccccc1F (single isomer, unassigned) [Example 47]	≤ 2000
N[C@@H](CC(=O)N1CCC[C@@H]1Cc1ccccc1)Cc1ccccc1F (single isomer, unassigned) [Example 48]	≤ 2000
N[C@@H](CC(=O)N1CCC(Cc2ccccc2)CC1)Cc1ccccc1F [Example 1]	≤ 2000
N[C@@H](CC(=O)N1CCC(CO)CC1)Cc1ccccc1F [Example 2]	≤ 2000
N[C@@H](CC(=O)N1CCC(N(C2CC2)S(=O)(=O)c2ccccc2)CC1)Cc1ccccc1F [Example 3]	≤ 2000
N[C@@H](CC(=O)N1CCC(c2ccccc2)CC1)Cc1ccccc1F [Example 4]	≤ 2000
N[C@@H](CC(=O)N1CCC(n2c(=O)[nH]c3ccccc32)CC1)Cc1ccccc1F [Example 6]	≤ 2000
COc1ccc(C2CCN(C(=O)C[C@H](N)Cc3ccccc3F)CC2)cc1 [Example 7]	≤ 2000
N[C@@H](CC(=O)N1CCC(N2CCCCC2=O)CC1)Cc1ccccc1F [Example 8]	≤ 2000
COc1ccccc1C1CCN(C(=O)C[C@H](N)Cc2ccccc2F)CC1 [Example 9]	≤ 2000
N[C@@H](CC(=O)N1CCC(O)CC1)Cc1ccccc1F [Example 10]	≤ 2000
CCN(CC)C(=O)C1CCCN(C(=O)C[C@H](N)Cc2ccccc2F)C1 (stereo partly drawn) [Example 11]	≤ 2000
N[C@@H](CC(=O)N1CCCC1Cc1cccnc1)Cc1ccccc1F (stereo partly drawn) [Example 13]	≤ 2000
N[C@@H](CC(=O)N1CCC(n2c(=O)[nH]c3cc(Cl)ccc32)CC1)Cc1ccccc1F [Example 14]	≤ 2000
N[C@@H](CC(=O)N1CCC(c2nc(-c3ccncc3)no2)CC1)Cc1ccccc1F [Example 15]	≤ 2000
N[C@@H](CC(=O)N1CCCC1Cc1cccc(Cl)c1)Cc1ccccc1F (stereo partly drawn) [Example 16]	≤ 2000
N[C@@H](CC(=O)N1CCCC1Cc1ccc(Cl)cc1)Cc1ccccc1F (stereo partly drawn) [Example 17]	≤ 2000
N[C@@H](CC(=O)N1CCCC1Cc1ccccn1)Cc1ccccc1F (stereo partly drawn) [Example 18]	≤ 2000
N[C@@H](CC(=O)N1CCC(n2nnc3ccccc32)CC1)Cc1ccccc1F [Example 19]	≤ 2000
N[C@@H](CC(=O)N1CCC(Oc2ccccc2)CC1)Cc1ccccc1F [Example 20]	≤ 2000
N[C@@H](CC(=O)N1CCC(c2nnc(-c3ccccc3)o2)CC1)Cc1ccccc1F [Example 21]	≤ 2000
CS(=O)(=O)c1ccc(-c2noc(C3CCN(C(=O)C[C@H](N)Cc4ccccc4F)CC3)n2)cc1 [Example 22]	≤ 2000
N[C@@H](CC(=O)N1CCC(c2nc(-c3cccnc3)no2)CC1)Cc1ccccc1F [Example 23]	≤ 2000
N[C@@H](CC(=O)N1CCC(C(=O)NCCO)CC1)Cc1ccccc1F [Example 24]	≤ 2000
N[C@@H](CC(=O)N1CCC(N2CCOCC2)CC1)Cc1ccccc1F [Example 25]	≤ 2000
N[C@@H](CC(=O)N1CCC(c2nc(-c3cnccn3)no2)CC1)Cc1ccccc1F [Example 26]	≤ 2000

Structure (SMILES)	IC50 [nM]
N[C@@H](CC(=O)N1CCC(C(F)(F)F)CC1)Cc1ccccc1F [Example 27]	≤ 2000
N[C@@H](CC(=O)N1CCC(c2nnc(-c3ccc(F)cc3)o2)CC1)Cc1ccccc1F [Example 28]	≤ 2000
COc1cc(OC)nc(C2CCN(C(=O)C[C@H](N)Cc3ccccc3F)CC2)n1 [Example 29]	≤ 2000
N[C@@H](CC(=O)N1CCCC(F)(F)C1)Cc1ccccc1F [Example 30]	≤ 2000
N[C@@H](CC(=O)N1CCC(Nc2cccc(S(=O)(=O)C(F)(F)F)c2)CC1)Cc1ccccc1F [Example 31]	≤ 2000
N[C@@H](CC(=O)N1CCC(c2nc3ccccc3[nH]2)CC1)Cc1ccccc1F [Example 32]	≤ 2000
N[C@@H](CC(=O)N1CCCC(Cc2ccccc2Cl)C1)Cc1ccccc1F (stereo partly drawn) [Example 33]	≤ 2000
N[C@@H](CC(=O)N1CCCC(Oc2ccccc2)C1)Cc1ccccc1F (stereo partly drawn) [Example 34]	≤ 2000
N[C@@H](CC(=O)N1CCC(c2ccc(Cl)cc2)CC1)Cc1ccccc1F [Example 35]	≤ 2000
N[C@@H](CC(=O)N1CCC(N(C2CC2)S(=O)(=O)c2ccc(Cl)cc2)CC1)Cc1ccccc1F [Example 36]	≤ 2000
N[C@@H](CC(=O)N1CCC(c2cccc(F)c2)CC1)Cc1ccccc1F [Example 37]	≤ 2000
N[C@@H](CC(=O)N1CCC(c2ccccc2C(F)(F)F)CC1)Cc1ccccc1F [Example 38]	≤ 2000
Cc1ccc(S(=O)(=O)C2CCN(C(=O)C[C@H](N)Cc3ccccc3F)CC2)cc1 [Example 39]	≤ 2000
N[C@@H](CC(=O)N1CCC(c2nc(-c3cccc(C(F)(F)F)c3)no2)CC1)Cc1ccccc1F [Example 40]	≤ 2000
N[C@@H](CC(=O)N1CCC(c2nnc(-c3cccc(C(F)(F)F)c3)o2)CC1)Cc1ccccc1F [Example 41]	≤ 2000
N[C@@H](CC(=O)N1CCC(c2cccc(Cl)c2)CC1)Cc1ccccc1F [Example 42]	≤ 2000
N[C@@H](CC(=O)N1CCCC(F)C1)Cc1ccccc1F (stereo partly drawn) [Example 43]	≤ 2000
N[C@@H](CC(=O)N1CCC(F)CC1)Cc1ccccc1F [Example 44]	≤ 2000
N[C@@H](CC(=O)N1CCCC(C(F)(F)F)C1)Cc1ccccc1F (stereo partly drawn) [Example 46]	≤ 2000
N[C@@H](CC(=O)N1CC(C(=O)NCc2ccccc2)C1)Cc1ccccc1F [Example 49, 1-[3-(R)-amino-4-(2-fluoro-phenyl)-butyryl]-azetidine-3-carboxylic acid benzylamide]	≤ 2000
N[C@@H](CC(=O)N1CC(C(=O)Nc2ccccn2)C1)Cc1ccccc1F [Example 50]	≤ 2000
N[C@@H](CC(=O)N1CC(N2CCN(c3ccccn3)CC2)C1)Cc1ccccc1F [Example 51, (3R)-3-amino-4-(2-fluoro-phenyl)-1-[3-(4-pyridin-2-yl-piperazin-1-yl)-azetidin-1-yl]-butan-1-one trifluoroacetic acid]	≤ 2000
N[C@@H](CC(=O)N1CC[C@H](NC(=O)C2CC2)C1)Cc1ccccc1F [Example 52, N-((S)-1-((R)-3-amino-4-(2-fluorophenyl)butanoyl)pyrrolidin-3-yl)cyclopropane-carboxamide trifluoroacetic acid salt]	≤ 2000
N[C@@H](CC(=O)N1CC[C@H](NC(=O)c2ccccc2)C1)Cc1ccccc1F [Example 53, N-((S)-1-((R)-3-amino-4-(2-fluorophenyl)butanoyl)pyrrolidin-3-yl)benzamide trifluoroacetic acid salt]	≤ 2000
N[C@@H](CC(=O)N1CC[C@@H](NC(=O)C2CC2)C1)Cc1ccccc1F [Example 54, N-((R)-1-((R)-3-amino-4-(2-fluorophenyl)butanoyl)pyrrolidin-3-yl)cyclopropane-carboxamide trifluoroacetic acid salt]	≤ 2000
N[C@@H](CC(=O)N1CC[C@@H](NC(=O)c2ccccc2)C1)Cc1ccccc1F [Example 55, N-((R)-1-((R)-3-amino-4-(2-fluorophenyl)butanoyl)pyrrolidin-3-yl)benzamide trifluoroacetic acid salt]	≤ 2000
N[C@H](Cc1ccccc1F)CS(=O)(=O)N1CCC[C@H]1CNS(=O)(=O)c1ccccc1 [Example 56, N-{(S)-1-[(R)-2-Amino-3-(2-fluoro-phenyl)-propane-1-sulphonyl]-pyrrolidin-2-ylmethyl}-benzenesulfonamide]	≤ 2000
